For at least one compound, name, drawing or mass did not settle the structure.
Molecular target: CDK1/CyclinB (Homo sapiens (Human), UniProt P06493)
Assay: CDK kinase activity assay (LANCE TR-FRET, ULight-4E-BP1 substrate)
Type: biochemical
Details: 60 minutes incubation
Procedure: The CDK kinase used in this experiment: CDK4/CyclinD1 (invitrogen, Item No: PV4400); CDK6/CyclinD1 (invitrogen, Item No: PV4401); CDK1/CyclinB (invitrogen, Item No: PV3292).
Reagents used: Substrate is ULight-4E-BP1 (PerkinElmer, Item No: TRF0128); antibody is Eu-labeledanti-phospho-eIF4E-bindingprotein1 (Thr37/46) (Perkin-Elmer, Item No: TRF0216).
The test compound was dissolved in dimethyl sulfoxide and the solution was diluted to each concentration gradient with a buffer (50 mM HEPES, 10 mM MgCl2, 1 mM EGTA, 2 mM DTT and 0.01% Tween20) according to the test needs, the concentration of dimethyl sulfoxide was 4%. The buffer was then used to dilute ATP and the substrate ULight-4E-BP1 to prepare the mixture of 800 μM ATP and 200 nM substrate for further use. 2.5 μL of mixture of substrate and ATP or 2.5 μL of substrate was added to the wells, and then 2.5 μL of compound or 4% buffer of dimethyl sulfoxide was added, finally 5 μL of enzyme (final concentration was 0.66 μg/mL) was added, incubated avoiding light at room temperature for 60 minutes. […]
The inhibition rate of the sample was determined by the following formula: […]
IC50 values were calculated using GraphPadPrism software.

Chains of the proteins cited; added tags and fusions are not shown.
UniProt P06493, whole entry: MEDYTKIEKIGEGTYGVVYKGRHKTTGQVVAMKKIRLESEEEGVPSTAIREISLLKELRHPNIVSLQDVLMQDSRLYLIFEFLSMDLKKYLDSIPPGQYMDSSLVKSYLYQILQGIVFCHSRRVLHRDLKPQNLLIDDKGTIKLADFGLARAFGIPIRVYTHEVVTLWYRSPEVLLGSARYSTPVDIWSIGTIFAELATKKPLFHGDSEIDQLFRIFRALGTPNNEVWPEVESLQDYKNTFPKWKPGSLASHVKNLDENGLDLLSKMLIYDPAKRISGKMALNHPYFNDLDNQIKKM

Which IC50 does the source give for `CN(C)C(=O)c1cc2cnc(Nc3ccc(N4CCNCC4)cn3)nc2n1N1CCCCC1` [Example 13] here?
The IC50 was > 500 nM.
